{
  "source": "paper PMC2715859",
  "binders": {"B1": {"name": "tissue non-specific alkaline phosphatase (TNAP) (enzyme, UniProt P09242 18-501)", "chain": "FVPEKERDPSYWRQQAQETLKNALKLQKLNTNVAKNVIMFLGDGMGVSTVTAARILKGQLHHNTGEETRLEMDKFPFVALSKTYNTNAQVPDSAGTATAYLCGVKANEGTVGVSAATERTRCNTTQGNEVTSILRWAKDAGKSVGIVTTTRVNHATPSAAYAHSADRDWYSDNEMPPEALSQGCKDIAYQLMHNIKDIDVIMGGGRKYMYPKNRTDVEYELDEKARGTRLDGLDLISIWKSFKPRHKHSHYVWNRTELLALDPSRVDYLLGLFEPGDMQYELNRNNLTDPSLSEMVEVALRILTKNLKGFFLLVEGGRIDHGHHEGKAKQALHEAVEMDQAIGKAGAMTSQKDTLTVVTADHSHVFTFGGYTPRGNSIFGLAPMVSDTDKKPFTAILYGNGPGYKVVDGERENVSMVDYAHNNYQAQSAVPLRHETHGGEDVAVFAKGPMAHLLHGVHEQNYIPHVMAYASCIGANLDHCAWAG"}},
  "biological_target": "cellular prion protein PrP^C (mouse (endogenous in 1C11-derived cells)) (UniProt P04925)",
  "test": "co-IP",
  "note": "These are yes or no findings as the source states them, for the method shown. In cells and extracts the contact can be indirect. Some entries that bind do so weakly or less than the wild type.",
  "data": [
    {"binder": "B1", "values": [
      {"measurement": "binding", "result": "binds"}
    ]}
  ]
}
